Reference: patent US20230037815A1

B1: CNG-CD19-706 (antibody, V domains shown)
VH: QVQLQESGPGLVKPSQTLSLTCTVSGGSIASGMGVSWIRQHPGKGLEWIGHIWWDDDKRYNPALKSRVTISVDTSKNQFSLKLSSVTAADTAVYYCARMELWSYYFDPWGQGTLVTVSS
VL: EIVLTQSPATLSLSPGERATLSCSASSSVGYMHWYQQKPGQAPRLLIYDTSKLASGIPARFSGSGSGTDFTLTISSLEPEDFAVYYCFQGSVYPFTFGQGTKLEIK
B2: CNG-CD19-707 (antibody, V domains shown)
VH: QVQLQESGPGLVKPSQTLSLTCTVSGGSISTSTMGVGWIRQHPGKGLEWIGFIWWDDDKRYNPNLKSRVTMSVDTSKNQFSLKLSSVTAADTAVYYCARMELWSYYFDPWGQGTLVTVSS
VL: EIVLTQSPATLSLSPGERATLSCSASSSVGYMHWYQQKPGQAPRLLIYDTSKLASGIPARFSGSGSGTDFTLTISSLEPEDFAVYYCFQGSVYPFTFGQGTKLEIK
B3: CNG-CD19-708 (antibody, V domains shown)
VH: QVQLQESGPGLVKPSQTLSLTCTVSGGSISTSTMGVGWIRQHPGKGLEWIGFIWWDDDKRYNPNLKSRVTMSVDTSKNQFSLKLSSVTAADTAVYYCARMELWSYYFDPWGQGTLVTVSS
VL: EIVLTQSPATLSLSPGERATLSCSASSSVGYMHWYQQKPGQAPRLLIYDTSKLSSGIPARFSGSGSGTDFTLTISSLEPEDFAVYYCFQGSVYPFTFGQGTKLEIK
B4: CNG-CD19-710 (antibody, V domains shown)
VH: QVQLQESGPGLVKPSQTLSLTCTVSGVSISTSSMGVGWIRQHPGKGLEWIGHAWWDDDKRYNPALKSRVTISVDTSKNQFSLKLSSVTAADTAVYYCARMELWSYYFDPWGQGTLVTVSS
VL: EIVLTQSPATLSLSPGERATLSCSASSSFSYMHWYQQKPGQAPRLLIYDTSKLASGIPARFSGSGSGTDFTLTISSLEPEDFAVYYCFQGSVYPFTFGQGTKLEIK
B5: CNG-CD19-103 (antibody, V domains shown)
VH: QVQLVQSGAEVKKPGASVKVSCKASGYTFTDYIMHWVRQAPGQGLEWMGYINPYNDGSKYTEKFQGRVTMTSDTSISTAYMELSRLRSDDTAVYYCARGTYYYGPQLFDYWGQGTTVTVSS
VL: DIVMTQTPLSLSVTPGQPASISCKSSQSLETATGTTYLNWYLQKPGQSPQLLIYRVSRRFSGVPDRFSGSGSGTDFTLKISRVEAEDVGVYYCLQLLEDPYSFGQGTKLEIK
B6: CNG-CD19-104 (antibody, V domains shown)
VH: QVQLVQSGAEVKKPGASVKVSCKASGYDFTDYIVHWVRQAPGQGLEWMGYINPYNDGSKYTEKFQGRVTMTSDTSISTAYMELSRLRSDDTAVYYCARGTYYYGPELFDYWGQGTTVTVSS
VL: DIVMTQTPLSLSVTPGQPASISCKSGQSLETSTGTTYLNWYLQKPGQSPQLLIYRVSRRFSGVPDRFSGSGSGTDFTLKISRVEAEDVGVYYCLQLLEDPYTFGQGTKLEIK
B7: CNG-CD19-105 (antibody, V domains shown)
VH: QVQLVQSGAEVKKPGASVKVSCKASGYEFTDYIMHWVRQAPGQGLEWMGYINPYNDGSKYTEKFEGRVTMTSDTSISTAYMELSRLRSDDTAVYYCARGTYYYGPELFDYWGQGTTVTVSS
VL: DIVMTQTPLSLSVTPGQPASISCKSSQRLETSTGTTYLNWYLQKPGQSPQLLIYRVSRRFSGVPDRFSGSGSGTDFTLKISRVEAEDVGVYYCLQLLEDPPTFGQGTKLEIK
B8: CNG-CD19-106 (antibody, V domains shown)
VH: QVQLVQSGAEVKKPGASVKVSCKASGYDFTDYIMHWVRQAPGQGLEWMGYINPYNDGSEYTEKFQGRVTMTSDTSISTAYMELSRLRSDDTAVYYCARGTYYYGPQLFDYWGQGTTVTVSS
VL: DIVMTQTPLSLSVTPGQPASISCKSSQSLETATGTTYLNWYLQKPGQSPQLLIYRVSRRFSGVPDRFSGSGSGTDFTLKISRVEAEDVGVYYCLQLLEDPYTFGQGTKLEIK
B9: CNG-CD19-107 (antibody, V domains shown)
VH: QVQLVQSGAEVKKPGASVKVSCKASGYDFTDYIMHWVRQAPGQGLEWMGYINPYNDGSKYTEKFQHRVTMTSDTSISTAYMELSRLRSDDTAVYYCARGTYYYGPQLFDYWGQGTTVTVSS
VL: DIVMTQTPLSLSVTPGQPASISCKSSQSLETSTGTTYLNWYLQKPGQSPQLLIYRVSRRFSGVPDRFSGSGSGTDFTLKISRVEAEDVGVYYCLQLLEDPYTFGQGTKLEIK
B10: CNG-CD19-108 (antibody, V domains shown)
VH: QVQLVQSGAEVKKPGASVKVSCKASGYDFTDYIVHWVRQAPGQGLEWMGYINPYNDGSKYTEKFQGRVTMTSDTSISTAYMELSRLRSDDTAVYYCARGTYYYGPQLFDYWGQGTTVTVSS
VL: DIVMTQTPLSLSVTPGQPASISCKSSQSLETVTGTTYLNWYLQKPGQSPQLLIYRVSKRFSGVPDRFSGSGSGTDFTLKISRVEAEDVGVYYCLQLLEDPPTFGQGTKLEIK
B11: CNG-CD19-109 (antibody, V domains shown)
VH: QVQLVQSGAEVKKPGASVKVSCKASGYDFTDYIVHWVRQAPGQGLEWMGYINPYNDGSLYTEKFQGRVTMTSDTSISTAYMELSRLRSDDTAVYYCARGTYYYGPQLFDYWGQGTTVTVSS
VL: DIVMTQTPLSLSVTPGQPASISCKSSQQLETSTGTTYLNWYLQKPGQSPQLLIYRASKRFSGVPDRFSGSGSGTDFTLKISRVEAEDVGVYYCLQLLEDPYSFGQGTKLEIK
B12: CNG-CD19-110 (antibody, V domains shown)
VH: QVQLVQSGAEVKKPGASVKVSCKASGYTFTDYIMHWVRQAPGQGLEWMGYINPYNDGSKYTEKFQGRVTMTSDTSISTAYMELSRLRSDDTAVYYCARGTYYYGPQLFDYWGQGTTVTVSS
VL: DIVMTQTPLSLSVTPGQPASISCKSSQSLETSTGTTYLNWYLQKPGQSPQLLIYRSSKRFSGVPDRFSGSGSGTDFTLKISRVEAEDVGVYYCLQLLEDPPTFGQGTKLEIK

biological target: cynomolgus CD19 (cynomolgus); assay: Octet HTX (ForteBio), IgG on AHC sensor

binding, binds:
B1
B2
B3
B4
B5
B6
B7
B8
B9
B10
B11
B12

Results are given in words; binding and its absence hold for the method and conditions named. A result given as binding can be weak or reduced; the word gives no strength.
